No constants are given. Whether binding was seen depends on the method and setting. In cells and extracts the contact can be indirect. Some binding calls cover weakened binding; strength is not graded here.
Biological target: T1, CDH1 C-terminal peptide … (human)
T1 sequence (peptide): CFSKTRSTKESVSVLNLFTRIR
Assay: peptide matrix pull-down from APC-containing fractions, western blot of all subunits

The chains behind the UniProt entries cited, without tags or fusion partners. Where a name states a change or a piece, a line headed by the entry shows the natural chain unless it says otherwise.
UniProt Q9H1A4: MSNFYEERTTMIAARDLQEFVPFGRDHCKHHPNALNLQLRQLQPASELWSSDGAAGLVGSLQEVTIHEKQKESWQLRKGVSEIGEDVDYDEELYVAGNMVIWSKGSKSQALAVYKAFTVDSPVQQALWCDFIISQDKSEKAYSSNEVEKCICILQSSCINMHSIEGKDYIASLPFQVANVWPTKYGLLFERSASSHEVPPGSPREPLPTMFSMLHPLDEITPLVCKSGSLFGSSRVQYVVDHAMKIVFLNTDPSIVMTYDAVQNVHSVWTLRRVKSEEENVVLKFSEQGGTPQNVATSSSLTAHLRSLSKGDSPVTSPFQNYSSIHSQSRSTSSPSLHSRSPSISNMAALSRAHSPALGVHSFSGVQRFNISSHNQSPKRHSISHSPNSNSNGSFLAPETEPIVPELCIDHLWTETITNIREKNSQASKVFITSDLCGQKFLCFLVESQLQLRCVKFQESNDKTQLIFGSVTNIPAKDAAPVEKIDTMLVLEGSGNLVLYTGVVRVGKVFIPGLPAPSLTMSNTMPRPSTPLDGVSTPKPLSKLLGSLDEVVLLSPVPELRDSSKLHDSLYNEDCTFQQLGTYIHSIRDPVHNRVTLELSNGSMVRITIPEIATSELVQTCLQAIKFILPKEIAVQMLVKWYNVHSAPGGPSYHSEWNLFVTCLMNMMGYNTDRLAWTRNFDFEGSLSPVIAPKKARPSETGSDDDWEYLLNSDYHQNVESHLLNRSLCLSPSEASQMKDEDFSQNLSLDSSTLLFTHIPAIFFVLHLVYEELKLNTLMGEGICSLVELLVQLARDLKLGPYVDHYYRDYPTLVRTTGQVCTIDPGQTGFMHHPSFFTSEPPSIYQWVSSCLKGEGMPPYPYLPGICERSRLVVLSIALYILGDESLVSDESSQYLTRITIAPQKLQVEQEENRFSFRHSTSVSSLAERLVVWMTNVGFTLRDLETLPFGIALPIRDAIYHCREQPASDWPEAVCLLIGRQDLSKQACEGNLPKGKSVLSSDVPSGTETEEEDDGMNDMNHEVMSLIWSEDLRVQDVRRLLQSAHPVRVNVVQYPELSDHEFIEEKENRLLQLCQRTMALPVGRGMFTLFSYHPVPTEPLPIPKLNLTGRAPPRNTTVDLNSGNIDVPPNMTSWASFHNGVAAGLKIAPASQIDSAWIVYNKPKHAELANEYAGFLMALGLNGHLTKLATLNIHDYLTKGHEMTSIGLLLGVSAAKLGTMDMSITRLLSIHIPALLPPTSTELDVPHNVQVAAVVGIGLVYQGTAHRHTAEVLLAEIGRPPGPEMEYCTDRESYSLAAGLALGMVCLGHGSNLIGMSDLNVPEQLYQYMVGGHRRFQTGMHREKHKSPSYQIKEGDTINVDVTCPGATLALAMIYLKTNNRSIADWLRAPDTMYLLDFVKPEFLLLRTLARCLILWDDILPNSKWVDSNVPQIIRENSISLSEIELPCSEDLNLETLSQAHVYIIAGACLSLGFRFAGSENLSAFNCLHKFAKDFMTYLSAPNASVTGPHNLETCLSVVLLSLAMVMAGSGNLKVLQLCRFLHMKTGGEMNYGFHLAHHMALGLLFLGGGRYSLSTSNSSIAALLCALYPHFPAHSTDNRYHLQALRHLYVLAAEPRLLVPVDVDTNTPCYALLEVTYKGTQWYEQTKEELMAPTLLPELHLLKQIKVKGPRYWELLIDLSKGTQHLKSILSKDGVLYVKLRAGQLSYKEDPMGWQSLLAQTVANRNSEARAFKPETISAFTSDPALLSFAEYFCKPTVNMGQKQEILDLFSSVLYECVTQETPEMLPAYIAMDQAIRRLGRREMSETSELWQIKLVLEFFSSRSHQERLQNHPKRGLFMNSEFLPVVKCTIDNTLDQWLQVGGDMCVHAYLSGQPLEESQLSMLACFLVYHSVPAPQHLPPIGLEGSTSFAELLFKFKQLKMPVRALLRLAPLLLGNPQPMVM

holo-APC (Anaphase Promoting Complex / cyclosome) from HeLa cells (from UniProt Q9H1A4 1-1944; Q9UJX6 1-822; P30260 1-824; Q9UJX5 1-808; Q9UJX4 1-755; Q13042 1-620; Q9UJX3 1-565; Q9UJX2 2-597; Q9UM13 2-185; Q9NYG5 1-84; Q8NHZ8 1-85)
binding: binds
